According to paper PMC6497666:
These are yes or no findings as the source states them, for the method shown. Some results given as binding are weak or reduced against the parent protein; the word gives no strength.

The chains behind the UniProt entries cited, without tags or fusion partners. Residues count along the entry.
UniProt P62328: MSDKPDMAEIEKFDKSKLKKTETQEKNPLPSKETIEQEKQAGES
NPHP3 (nephronophthisis 3) prey #1, aa 69-223, GAL4-AD fusion (Q7Z494, residues 69-223): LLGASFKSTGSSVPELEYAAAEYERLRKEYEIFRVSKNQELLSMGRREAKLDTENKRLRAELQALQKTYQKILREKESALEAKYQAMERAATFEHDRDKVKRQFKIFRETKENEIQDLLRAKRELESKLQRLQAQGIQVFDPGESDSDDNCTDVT
NPHP3 (nephronophthisis 3) prey #2~#10, aa 89-223, GAL4-AD fusion (Q7Z494, residues 89-223): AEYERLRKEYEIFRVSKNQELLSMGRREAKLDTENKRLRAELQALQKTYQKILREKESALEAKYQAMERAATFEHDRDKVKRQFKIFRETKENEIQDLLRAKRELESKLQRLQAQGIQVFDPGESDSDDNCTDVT

Molecular target: GAL4 DNA-binding domain (BD)-fused Tβ4 (Thymosin β-4) bait (human) (UniProt P62328)
Test: two-hybrid; GAL4-BD-Tβ4 bait (pGBKT) against human thymus cDNA GAL4-AD library (pACT2) in yeast PBN204; reporters URA3, ADE2, lacZ; preys re-introduced with bait and confirmed on SD-LWU and SD-LWA

Row | Substance | binding
1 | NPHP3 (nephronophthisis 3) prey #1, aa 69-223, GAL4-AD fusion (from UniProt Q7Z494-1 69-223) (domain or fragment) | binds
2 | NPHP3 (nephronophthisis 3) prey #2~#10, aa 89-223, GAL4-AD fusion (from UniProt Q7Z494-1 89-223) (domain or fragment) | binds
